Measured values: PMC11430399, “Cold-induced degradation of core clock proteins implements temperature compensation in the Arabidopsis circadian clock” (Science Advances, 2024)

Chains of the proteins cited; added tags and fusions are not shown.
UniProt Q9C9W9: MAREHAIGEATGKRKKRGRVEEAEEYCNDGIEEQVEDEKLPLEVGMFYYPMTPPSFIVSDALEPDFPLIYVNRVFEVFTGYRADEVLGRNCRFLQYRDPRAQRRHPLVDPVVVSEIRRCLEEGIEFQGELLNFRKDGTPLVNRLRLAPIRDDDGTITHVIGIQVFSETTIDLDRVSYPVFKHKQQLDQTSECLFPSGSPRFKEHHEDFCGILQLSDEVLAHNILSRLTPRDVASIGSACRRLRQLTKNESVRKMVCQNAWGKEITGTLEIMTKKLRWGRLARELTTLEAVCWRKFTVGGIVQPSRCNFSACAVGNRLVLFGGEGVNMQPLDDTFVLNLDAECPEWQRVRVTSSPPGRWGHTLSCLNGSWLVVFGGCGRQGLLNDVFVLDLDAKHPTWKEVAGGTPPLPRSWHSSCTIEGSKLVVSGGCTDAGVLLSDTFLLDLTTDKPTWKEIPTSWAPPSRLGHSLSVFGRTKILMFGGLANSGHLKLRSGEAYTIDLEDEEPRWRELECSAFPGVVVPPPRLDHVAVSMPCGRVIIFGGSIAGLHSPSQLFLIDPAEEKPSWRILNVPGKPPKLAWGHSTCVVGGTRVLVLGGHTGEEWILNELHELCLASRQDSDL
UniProt Q8W420: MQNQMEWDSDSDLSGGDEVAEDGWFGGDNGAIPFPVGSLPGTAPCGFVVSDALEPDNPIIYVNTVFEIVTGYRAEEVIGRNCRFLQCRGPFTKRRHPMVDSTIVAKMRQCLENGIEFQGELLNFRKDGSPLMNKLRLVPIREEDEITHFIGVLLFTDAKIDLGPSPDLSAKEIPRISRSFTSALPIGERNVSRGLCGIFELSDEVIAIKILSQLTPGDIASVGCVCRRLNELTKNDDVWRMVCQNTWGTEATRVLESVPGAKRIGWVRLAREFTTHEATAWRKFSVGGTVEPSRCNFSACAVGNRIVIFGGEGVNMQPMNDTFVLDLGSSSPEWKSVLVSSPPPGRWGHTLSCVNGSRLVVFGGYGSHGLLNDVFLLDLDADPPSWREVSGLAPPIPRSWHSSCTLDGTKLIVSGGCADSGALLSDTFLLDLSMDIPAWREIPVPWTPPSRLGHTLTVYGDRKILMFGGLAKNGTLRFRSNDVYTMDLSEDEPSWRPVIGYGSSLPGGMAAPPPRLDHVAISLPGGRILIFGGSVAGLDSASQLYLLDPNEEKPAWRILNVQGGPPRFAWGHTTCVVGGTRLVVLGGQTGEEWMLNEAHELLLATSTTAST
UniProt Q94BT6: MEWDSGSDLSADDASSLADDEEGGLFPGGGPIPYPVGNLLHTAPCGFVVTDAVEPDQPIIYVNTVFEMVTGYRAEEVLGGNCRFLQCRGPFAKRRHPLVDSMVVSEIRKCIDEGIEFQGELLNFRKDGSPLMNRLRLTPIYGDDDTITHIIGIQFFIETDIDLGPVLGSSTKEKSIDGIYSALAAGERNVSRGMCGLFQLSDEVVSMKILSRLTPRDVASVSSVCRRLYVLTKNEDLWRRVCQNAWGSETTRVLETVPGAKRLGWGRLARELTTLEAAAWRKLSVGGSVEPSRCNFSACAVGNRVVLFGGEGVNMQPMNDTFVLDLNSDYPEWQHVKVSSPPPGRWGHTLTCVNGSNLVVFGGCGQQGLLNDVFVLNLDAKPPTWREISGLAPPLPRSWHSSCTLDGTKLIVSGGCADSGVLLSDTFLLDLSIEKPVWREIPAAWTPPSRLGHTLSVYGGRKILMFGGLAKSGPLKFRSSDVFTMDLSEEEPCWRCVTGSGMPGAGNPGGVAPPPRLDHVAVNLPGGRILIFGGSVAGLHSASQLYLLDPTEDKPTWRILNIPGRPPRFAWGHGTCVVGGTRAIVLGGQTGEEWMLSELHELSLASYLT

How the values were obtained:
[1] = target: T1, PSEUDO-RESPONSE REGULATOR 5 with a C-terminal triple FLAG tag (PRR5-FLAG) (Arabidopsis thaliana) (UniProt Q6LA42); test: affinity purification with mass spectrometry; anti-FLAG antibody on Dynabeads Protein G, 2 hours at 4°C, from extracts of 35Sp:TOC1-F or 35Sp:PRR5-F seedlings treated with 100 uM MG132 and kept at 12° or 28°C for 1 day; lysis I buffer 50 mM tris-HCl pH 7.5, 100 mM NaCl, 0.1% Triton X-100; on-bead Lys-C/trypsin digest, nano-LC-MS/MS; three biological replicates
T1 sequence: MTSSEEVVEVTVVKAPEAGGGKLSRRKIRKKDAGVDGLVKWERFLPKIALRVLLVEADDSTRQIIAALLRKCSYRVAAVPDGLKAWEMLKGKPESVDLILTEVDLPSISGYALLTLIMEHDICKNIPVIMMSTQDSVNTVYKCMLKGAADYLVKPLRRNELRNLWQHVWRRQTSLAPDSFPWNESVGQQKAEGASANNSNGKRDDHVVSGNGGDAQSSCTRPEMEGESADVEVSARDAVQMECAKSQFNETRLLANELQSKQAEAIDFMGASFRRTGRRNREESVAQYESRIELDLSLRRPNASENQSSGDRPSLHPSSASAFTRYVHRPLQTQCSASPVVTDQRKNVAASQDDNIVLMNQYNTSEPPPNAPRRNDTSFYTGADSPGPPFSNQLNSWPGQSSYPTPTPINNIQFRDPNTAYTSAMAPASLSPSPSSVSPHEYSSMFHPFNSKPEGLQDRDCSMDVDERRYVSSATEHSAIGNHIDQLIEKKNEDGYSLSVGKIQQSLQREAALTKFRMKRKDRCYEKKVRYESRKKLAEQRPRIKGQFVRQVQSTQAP

[2] = target: T2, TIMING OF CAB EXPRESSION 1 with a C-terminal triple FLAG tag (TOC1-FLAG) (Arabidopsis thaliana) (UniProt Q9LKL2); test: as above
T2 sequence: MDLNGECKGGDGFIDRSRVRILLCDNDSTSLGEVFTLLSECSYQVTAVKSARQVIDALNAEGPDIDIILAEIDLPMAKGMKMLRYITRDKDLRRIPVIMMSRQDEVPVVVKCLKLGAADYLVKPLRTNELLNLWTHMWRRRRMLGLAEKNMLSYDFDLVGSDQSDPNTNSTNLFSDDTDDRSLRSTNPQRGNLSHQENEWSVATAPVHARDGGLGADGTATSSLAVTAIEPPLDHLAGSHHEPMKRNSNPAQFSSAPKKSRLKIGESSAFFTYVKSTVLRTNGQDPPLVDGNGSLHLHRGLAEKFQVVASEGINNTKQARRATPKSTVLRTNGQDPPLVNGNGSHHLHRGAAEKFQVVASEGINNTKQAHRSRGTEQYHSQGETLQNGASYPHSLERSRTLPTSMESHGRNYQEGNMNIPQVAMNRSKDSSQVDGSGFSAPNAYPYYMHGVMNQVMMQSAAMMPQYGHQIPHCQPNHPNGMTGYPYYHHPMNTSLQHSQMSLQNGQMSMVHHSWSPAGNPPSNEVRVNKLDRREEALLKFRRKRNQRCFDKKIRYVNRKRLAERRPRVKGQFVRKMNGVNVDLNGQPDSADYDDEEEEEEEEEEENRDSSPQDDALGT

| binding [1] | binding [2] | Substance |
| --- | --- | --- |
| no binding | no binding | FLAVIN-BINDING, KELCH REPEAT, F-BOX 1 (endogenous) (from UniProt Q9C9W9 1-619) |
| binds | binds | LOV KELCH PROTEIN 2 (endogenous) (from UniProt Q8W420 1-611) |
| binds | binds | ZEITLUPE (endogenous) (from UniProt Q94BT6 1-609) |

These are yes or no findings as the source states them, for the method shown. Binding seen in cells or lysates may run through a third protein. Here binding means that the protein was enriched with, or labelled near, the bait; the list need not be complete. A no says only that the protein was not detected with the bait. Where a sequence is shown, tags or fusion partners need not be part of it.
